One assay concerns the target T1, FLAG-ADAR1p110-WT (UniProt P55265-5 1-931).
T1 construct: ADAR1 (ADAR, DRADA), nuclear p110 isoform, wild type; also called F-ADAR1p110-WT; F-ADAR1p110; source: HEK293T, stably expressing (p3XFLAG-CMV-10 plasmid co-transfected with pPUR), in lysate of formaldehyde-fixed cells
T1 sequence (looked up): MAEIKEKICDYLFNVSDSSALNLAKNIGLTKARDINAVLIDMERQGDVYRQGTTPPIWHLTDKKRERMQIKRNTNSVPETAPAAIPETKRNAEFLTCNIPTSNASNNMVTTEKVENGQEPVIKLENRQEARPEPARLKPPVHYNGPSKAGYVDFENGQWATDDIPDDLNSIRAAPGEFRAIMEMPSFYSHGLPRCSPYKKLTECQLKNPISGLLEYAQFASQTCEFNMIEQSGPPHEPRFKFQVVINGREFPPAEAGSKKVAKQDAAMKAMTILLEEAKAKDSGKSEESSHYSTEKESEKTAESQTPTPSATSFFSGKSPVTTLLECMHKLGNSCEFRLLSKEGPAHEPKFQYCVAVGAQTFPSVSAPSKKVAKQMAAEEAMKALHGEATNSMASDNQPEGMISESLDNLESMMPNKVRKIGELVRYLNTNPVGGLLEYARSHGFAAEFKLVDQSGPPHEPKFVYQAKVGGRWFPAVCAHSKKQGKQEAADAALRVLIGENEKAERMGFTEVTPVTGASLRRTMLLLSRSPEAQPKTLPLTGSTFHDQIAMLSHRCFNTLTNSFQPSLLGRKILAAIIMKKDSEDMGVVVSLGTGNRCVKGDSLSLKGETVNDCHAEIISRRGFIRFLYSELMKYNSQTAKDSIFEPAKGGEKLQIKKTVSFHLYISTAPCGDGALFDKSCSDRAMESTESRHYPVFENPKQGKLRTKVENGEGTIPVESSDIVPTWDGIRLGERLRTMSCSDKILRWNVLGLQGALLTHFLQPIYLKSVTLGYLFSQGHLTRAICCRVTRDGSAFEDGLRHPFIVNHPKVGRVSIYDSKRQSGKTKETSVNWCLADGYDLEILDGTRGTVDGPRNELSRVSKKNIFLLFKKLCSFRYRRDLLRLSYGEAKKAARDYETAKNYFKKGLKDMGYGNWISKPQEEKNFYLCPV
The assay is described as follows: co-IP; cells expressing the FLAG-tagged bait fixed with 0.3% formaldehyde, lysed in co-IP buffer (50 mM Tris-HCl pH 7.6, 150 mM NaCl, 1 mM EDTA, 1% NP-40, 0.5% sodium deoxycholate, 0.1% SDS, RNasin Plus) and sonicated; anti-FLAG M2 magnetic beads overnight at 4 °C; immunoblot; for Fig. 10c HEK293T cells unsynchronized or synchronized at M phase (thymidine-nocodazole).

In another assay the target is FLAG-ADAR2-WT (UniProt P78563). Described as above.

Results are given in words; binding and its absence hold for the method and conditions named. Binding seen in cells or lysates may run through a third protein. Some entries that bind do so weakly or less than the wild type. For part of these data: Tags and fused reporters may be left off the sequences shown.

B1: RNase H1 (protein, UniProt O60930 1-286)
chain: MSWLLFLAHRVALAALPCRRGSRGFGMFYAVRRGRKTGVFLTWNECRAQVDRFPAARFKKFATEDEAWAFVRKSASPEVSEGHENQHGQESEAKASKRLREPLDGDGHESAEPYAKHMKPSVEPAPPVSRDTFSYMGDFVVVYTDGCCSSNGRRRPRAGIGVYWGPGHPLNVGIRLPGRQTNQRAEIHAACKAIEQAKTQNINKLVLYTDSMFTINGITNWVQGWKKNGWKTSAGKEVINKEDFVALERLTQGMDIQWMHVPGHSGFIGNEEADRLAREGAKQSED
Regarding B1, the binding entry in the assay with FLAG-ADAR1p110-WT and with FLAG-ADAR2-WT was “no binding” in each case.

B2: RNase H2C (protein, UniProt Q8TDP1 1-164)
chain: MESGDEAAIERHRVHLRSATLRDAVPATLHLLPCEVAVDGPAPVGRFFTPAIRQGPEGLEVSFRGRCLRGEEVAVPPGLVGYVMVTEEKKVSMGKPDPLRDSGTDDQEEEPLERDFDRFIGATANFSRFTLWGLETIPGPDAKVRGALTWPSLAAAIHAQVPED
Take B2: the binding result in the assay with FLAG-ADAR1p110-WT is “binds”.

The record behind these values is publication PMC7955049, “ADAR1 RNA editing enzyme regulates R-loop formation and genome stability at telomeres in cancer cells” (Nature Communications, 2021).
